Test results reported in article PMC7368075.
No constants are given. Whether binding was seen depends on the method and setting. In cells and extracts the contact can be indirect. These calls come from enrichment with a bait or labelling near it, and not all partners need be listed.

The chains behind the UniProt entries cited, without tags or fusion partners. Residues count along the entry.
UniProt Q9H792: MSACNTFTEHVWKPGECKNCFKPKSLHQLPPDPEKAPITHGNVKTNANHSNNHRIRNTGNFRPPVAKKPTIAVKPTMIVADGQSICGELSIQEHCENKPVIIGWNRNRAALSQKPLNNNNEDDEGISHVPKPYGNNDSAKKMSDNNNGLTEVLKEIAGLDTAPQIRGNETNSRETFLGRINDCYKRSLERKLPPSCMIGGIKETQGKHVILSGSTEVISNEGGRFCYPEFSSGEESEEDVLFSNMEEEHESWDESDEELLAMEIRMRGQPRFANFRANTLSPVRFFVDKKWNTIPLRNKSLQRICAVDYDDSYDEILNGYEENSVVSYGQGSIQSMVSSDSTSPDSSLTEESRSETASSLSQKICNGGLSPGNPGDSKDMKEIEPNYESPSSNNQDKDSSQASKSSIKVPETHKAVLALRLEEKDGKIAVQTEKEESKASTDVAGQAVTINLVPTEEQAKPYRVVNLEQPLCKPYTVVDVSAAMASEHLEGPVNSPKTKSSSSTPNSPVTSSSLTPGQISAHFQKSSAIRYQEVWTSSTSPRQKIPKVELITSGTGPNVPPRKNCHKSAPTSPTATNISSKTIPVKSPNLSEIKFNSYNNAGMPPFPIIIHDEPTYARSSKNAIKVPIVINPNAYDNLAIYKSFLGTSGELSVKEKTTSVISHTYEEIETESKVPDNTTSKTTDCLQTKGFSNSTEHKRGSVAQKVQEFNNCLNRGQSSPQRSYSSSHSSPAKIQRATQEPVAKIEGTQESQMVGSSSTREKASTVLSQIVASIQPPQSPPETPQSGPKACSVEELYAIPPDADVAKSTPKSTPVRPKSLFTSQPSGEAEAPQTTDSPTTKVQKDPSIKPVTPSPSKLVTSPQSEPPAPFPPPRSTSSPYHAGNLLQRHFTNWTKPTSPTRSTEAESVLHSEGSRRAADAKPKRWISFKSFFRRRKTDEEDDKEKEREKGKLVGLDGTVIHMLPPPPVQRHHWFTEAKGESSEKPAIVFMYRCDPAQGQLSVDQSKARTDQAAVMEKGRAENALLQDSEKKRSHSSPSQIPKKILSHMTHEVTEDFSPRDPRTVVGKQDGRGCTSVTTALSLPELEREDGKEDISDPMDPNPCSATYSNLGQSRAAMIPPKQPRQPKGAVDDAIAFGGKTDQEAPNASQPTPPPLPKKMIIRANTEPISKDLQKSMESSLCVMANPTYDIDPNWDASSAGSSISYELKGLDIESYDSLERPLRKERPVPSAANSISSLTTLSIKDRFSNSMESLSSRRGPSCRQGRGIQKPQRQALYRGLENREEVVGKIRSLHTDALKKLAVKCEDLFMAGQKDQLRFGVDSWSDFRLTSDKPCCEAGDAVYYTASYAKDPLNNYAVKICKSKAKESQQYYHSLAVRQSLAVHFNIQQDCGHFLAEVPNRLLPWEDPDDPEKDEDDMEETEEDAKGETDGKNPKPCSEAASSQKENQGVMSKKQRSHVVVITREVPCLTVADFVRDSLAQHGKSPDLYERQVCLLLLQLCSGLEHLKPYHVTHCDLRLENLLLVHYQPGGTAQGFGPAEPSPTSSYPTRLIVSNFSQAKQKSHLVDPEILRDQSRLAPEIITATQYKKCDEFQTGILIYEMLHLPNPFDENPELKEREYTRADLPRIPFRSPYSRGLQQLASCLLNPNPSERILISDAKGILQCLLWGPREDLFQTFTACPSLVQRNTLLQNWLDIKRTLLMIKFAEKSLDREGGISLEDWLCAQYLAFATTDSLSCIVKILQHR
UniProt P29317, residues 24-976: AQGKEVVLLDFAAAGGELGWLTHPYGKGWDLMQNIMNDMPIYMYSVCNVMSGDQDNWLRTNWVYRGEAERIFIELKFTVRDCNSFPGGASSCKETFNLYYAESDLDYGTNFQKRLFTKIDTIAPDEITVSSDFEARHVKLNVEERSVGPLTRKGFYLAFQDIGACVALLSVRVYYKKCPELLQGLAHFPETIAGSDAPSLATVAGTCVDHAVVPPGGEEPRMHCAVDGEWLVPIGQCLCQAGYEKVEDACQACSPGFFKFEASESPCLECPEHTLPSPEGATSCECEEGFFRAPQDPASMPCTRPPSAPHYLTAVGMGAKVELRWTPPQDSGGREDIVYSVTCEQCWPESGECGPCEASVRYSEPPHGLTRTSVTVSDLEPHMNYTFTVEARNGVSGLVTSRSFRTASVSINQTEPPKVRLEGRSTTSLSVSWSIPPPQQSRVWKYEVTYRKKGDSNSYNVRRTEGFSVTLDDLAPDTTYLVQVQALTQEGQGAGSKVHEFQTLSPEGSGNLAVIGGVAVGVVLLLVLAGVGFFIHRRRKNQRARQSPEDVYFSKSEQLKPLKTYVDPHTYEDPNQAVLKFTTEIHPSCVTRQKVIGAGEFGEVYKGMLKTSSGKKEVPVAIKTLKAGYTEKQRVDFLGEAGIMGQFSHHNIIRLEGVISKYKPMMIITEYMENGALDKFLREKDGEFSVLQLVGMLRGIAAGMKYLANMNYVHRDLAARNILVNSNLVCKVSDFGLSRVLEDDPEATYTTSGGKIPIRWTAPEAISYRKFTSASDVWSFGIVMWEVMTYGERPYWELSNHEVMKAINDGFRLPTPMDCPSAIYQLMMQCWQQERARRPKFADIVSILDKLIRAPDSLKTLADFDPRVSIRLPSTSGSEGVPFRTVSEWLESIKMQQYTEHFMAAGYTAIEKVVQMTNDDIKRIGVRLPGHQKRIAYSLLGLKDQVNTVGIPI

Biological target: BirA*-FLAG-PEAK1 (human) (UniProt Q9H792)
Assay: proximity labelling; BioID: BirA*-Flag bait in Flp-In T-REx 293 cells, tetracycline and 50 µM biotin 24 h, RIPA lysis, streptavidin beads, mass spectrometry, SAINTexpress against BirA*-Flag-EGFP

Row | binding | Substance
1 | binds | CRKII (from UniProt P46108-1 1-304)
2 | binds | EPHA2 (from UniProt P29317 24-976) (receptor)
